PubChem BioAssay AID504764 – Drosophila RNAi Screening Center | 2011
In all, the deposit lists about 22,000 reagents; this is a random part of those with a known target gene and a result. Over the whole deposit, 403 (1.9%) were called active. 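Unnormalised raw counts per well; ratio z-scores behind the hit calls and whether each hit raises or lowers signal are not deposited.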 Reagents against one gene are numbered here. Not stated in the record: the amount of reagent.

Aim: 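Knock-downs that raise or lower a Notch target reporter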 (primary screen)
Cell system: Drosophila Kc167 cells
Reagents: long dsRNA against Drosophila genes
Duration: about 5 days (4 days dsRNA, then 24 h after transfection)
Treatment: transfection of constitutively active membrane-tethered Notch lacking the extracellular domain, read 24 h later
Read-out: 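Firefly luciferase from an E(spl)m3 reporter with active Notch, plus control-promoter and uninduced reporter wells for normalisation; unnormalised counts, duplicate wells a and b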
Reading the numbers: induced reporter light, run 1, well a and induced reporter light, run 1, well b: higher = more light from the Notch target reporter with active Notch; control promoter light, run 1, well a and control promoter light, run 1, well b: higher = more light from the viral control promoter (cell number, transfection, viability); uninduced reporter light, run 1, well a: higher = more light from the Notch target reporter without active Notch
Active means: 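Hit if the duplicate-averaged log2 ratio of induced to control-promoter light gives a plate-wise z beyond ±2, or induced to uninduced beyond ±1.8; weak-control or discordant-duplicate wells dropped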
Meaning of the calls: active = modifier hit (raised or lowered Notch signal); inactive = not a hit

| Target gene | reagent no. | induced reporter light, run 1, well a | induced reporter light, run 1, well b | control promoter light, run 1, well a | control promoter light, run 1, well b | uninduced reporter light, run 1, well a | Call |
| --- | --- | --- | --- | --- | --- | --- | --- |
| CG17544 | 1 | 2.04e5 | 2.12e5 | 1.99e5 | 1.83e5 | 15780 | inactive |
| CG31406 | 1 | 1.71e5 | 1.50e5 | 1.46e5 | 1.37e5 | 11660 | inactive |
| CG9747 | 1 | 1.61e5 | 2.09e5 | 2.47e5 | 2.34e5 | 11500 | inactive |
| mura | 1 | 72260 | 85645 | 1.00e5 | 66230 | 5025 | inactive |
| mura | 2 | 85480 | 91495 | 71995 | 54595 | 5490 | inactive |
| CG12056 | 1 | 1.84e5 | 1.73e5 | 2.02e5 | 2.18e5 | 13255 | inactive |
| eIF4E1 | 1 | 39395 | 32455 | 26575 | 13100 | 3020 | inactive |
| CG12496 | 1 | 1.26e5 | 1.01e5 | 2.31e5 | 2.31e5 | 9800 | inactive |
| CG9667 | 1 | 27305 | 29550 | 25670 | 19795 | 2690 | inactive |
| thoc5 | 1 | 1.09e5 | 93430 | 68985 | 64455 | 6375 | inactive |
| Pmm2 | 1 | 1.64e5 | 1.24e5 | 2.33e5 | 1.50e5 | 7130 | inactive |
| dbe | 1 | 1.56e5 | 1.63e5 | 2.32e5 | 2.14e5 | 15430 | inactive |
| spri | 1 | 69855 | 75830 | 44010 | 44855 | 9395 | inactive |
| spri | 2 | 71000 | 65460 | 1.35e5 | 1.26e5 | 5055 | inactive |
| spri | 3 | 1.22e5 | 1.16e5 | 1.32e5 | 1.40e5 | 7765 | inactive |
| spri | 4 | 1.13e5 | 1.10e5 | 2.07e5 | 1.41e5 | 10035 | inactive |
| spri | 5 | 80050 | 73035 | 1.44e5 | 1.22e5 | 6300 | inactive |
| spri | 6 | 88035 | 98335 | 1.57e5 | 1.51e5 | 7460 | inactive |
| spri | 7 | – | – | – | – | – | active |
| RPA3 | 1 | 1.10e5 | 95550 | 1.59e5 | 1.75e5 | 7890 | inactive |

2 successive records already listed:
| Target gene | reagent no. | induced reporter light, run 1, well a | induced reporter light, run 1, well b | control promoter light, run 1, well a | control promoter light, run 1, well b | uninduced reporter light, run 1, well a | Call |
| --- | --- | --- | --- | --- | --- | --- | --- |
| CG12496 | 1 | 1.26e5 | 1.01e5 | 2.31e5 | 2.31e5 | 9800 | inactive |
| CG9667 | 1 | 27305 | 29550 | 25670 | 19795 | 2690 | inactive |
